Measured values as given in patent publication US6710090B2, “Inhibitory or blocking agents of molecular generating and/or inducing functions” (priority 1994, dated 2004).

Tested on: NADPH, cytochrome C, heme and aromatic amino acids in defibrinized human blood serum
Experiment: Effect on NADPH, heme and cytochrome C, infrared spectrophotometer
Type: biochemical
Settings: 4 μl of Yoshixol

SMILES: C=C1CC(C)(C)C=CC1=O [Yoshixol, 4,4-dimethyl-6-methylene-2-cyclohexen-1-one]
- concentration of NADPH, cytochrome C and heme (1 μl defibrinized human blood serum, 340, 415, 520, 550 nanometer): did not alter
- characteristic peak of wave length with amino acids (aromatic amino acids 280 nanometer): disappeared and shifted to lower wave length
